Reference: publication PMC11176080
Results are given in words; binding and its absence hold for the method and conditions named. Binding seen in cells or lysates may run through a third protein. These calls come from enrichment with a bait or labelling near it, and not all partners need be listed.

Amino acid sequences for entries named in this document (tags omitted).
UniProt Q91ZW3: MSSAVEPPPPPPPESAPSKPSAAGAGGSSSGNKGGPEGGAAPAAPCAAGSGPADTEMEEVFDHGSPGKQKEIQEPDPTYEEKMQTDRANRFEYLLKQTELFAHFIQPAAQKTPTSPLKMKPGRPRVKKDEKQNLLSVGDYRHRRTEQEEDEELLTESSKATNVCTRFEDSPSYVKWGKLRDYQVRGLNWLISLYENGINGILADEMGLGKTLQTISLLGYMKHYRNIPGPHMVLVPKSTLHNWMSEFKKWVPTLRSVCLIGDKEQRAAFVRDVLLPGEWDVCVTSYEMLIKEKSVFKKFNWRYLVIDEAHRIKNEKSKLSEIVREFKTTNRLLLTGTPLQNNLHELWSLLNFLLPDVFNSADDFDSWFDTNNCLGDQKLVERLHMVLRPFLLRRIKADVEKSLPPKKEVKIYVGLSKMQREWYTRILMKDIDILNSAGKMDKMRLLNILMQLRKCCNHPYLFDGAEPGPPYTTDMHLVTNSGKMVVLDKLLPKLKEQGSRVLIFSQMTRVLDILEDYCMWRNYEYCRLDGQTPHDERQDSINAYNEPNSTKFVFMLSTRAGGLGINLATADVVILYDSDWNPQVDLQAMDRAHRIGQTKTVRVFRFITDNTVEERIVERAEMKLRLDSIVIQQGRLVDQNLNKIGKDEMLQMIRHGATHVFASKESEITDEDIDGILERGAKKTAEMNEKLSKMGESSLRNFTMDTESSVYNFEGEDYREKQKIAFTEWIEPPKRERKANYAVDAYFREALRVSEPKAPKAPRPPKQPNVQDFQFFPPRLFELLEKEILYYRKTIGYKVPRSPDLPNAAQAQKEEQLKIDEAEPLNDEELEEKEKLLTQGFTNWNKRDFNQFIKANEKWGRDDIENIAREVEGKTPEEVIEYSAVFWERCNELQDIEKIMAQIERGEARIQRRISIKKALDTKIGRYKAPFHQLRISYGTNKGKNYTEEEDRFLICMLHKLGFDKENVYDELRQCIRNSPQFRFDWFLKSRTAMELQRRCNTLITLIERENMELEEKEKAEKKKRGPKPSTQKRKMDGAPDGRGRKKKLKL
UniProt E9Q2Z1: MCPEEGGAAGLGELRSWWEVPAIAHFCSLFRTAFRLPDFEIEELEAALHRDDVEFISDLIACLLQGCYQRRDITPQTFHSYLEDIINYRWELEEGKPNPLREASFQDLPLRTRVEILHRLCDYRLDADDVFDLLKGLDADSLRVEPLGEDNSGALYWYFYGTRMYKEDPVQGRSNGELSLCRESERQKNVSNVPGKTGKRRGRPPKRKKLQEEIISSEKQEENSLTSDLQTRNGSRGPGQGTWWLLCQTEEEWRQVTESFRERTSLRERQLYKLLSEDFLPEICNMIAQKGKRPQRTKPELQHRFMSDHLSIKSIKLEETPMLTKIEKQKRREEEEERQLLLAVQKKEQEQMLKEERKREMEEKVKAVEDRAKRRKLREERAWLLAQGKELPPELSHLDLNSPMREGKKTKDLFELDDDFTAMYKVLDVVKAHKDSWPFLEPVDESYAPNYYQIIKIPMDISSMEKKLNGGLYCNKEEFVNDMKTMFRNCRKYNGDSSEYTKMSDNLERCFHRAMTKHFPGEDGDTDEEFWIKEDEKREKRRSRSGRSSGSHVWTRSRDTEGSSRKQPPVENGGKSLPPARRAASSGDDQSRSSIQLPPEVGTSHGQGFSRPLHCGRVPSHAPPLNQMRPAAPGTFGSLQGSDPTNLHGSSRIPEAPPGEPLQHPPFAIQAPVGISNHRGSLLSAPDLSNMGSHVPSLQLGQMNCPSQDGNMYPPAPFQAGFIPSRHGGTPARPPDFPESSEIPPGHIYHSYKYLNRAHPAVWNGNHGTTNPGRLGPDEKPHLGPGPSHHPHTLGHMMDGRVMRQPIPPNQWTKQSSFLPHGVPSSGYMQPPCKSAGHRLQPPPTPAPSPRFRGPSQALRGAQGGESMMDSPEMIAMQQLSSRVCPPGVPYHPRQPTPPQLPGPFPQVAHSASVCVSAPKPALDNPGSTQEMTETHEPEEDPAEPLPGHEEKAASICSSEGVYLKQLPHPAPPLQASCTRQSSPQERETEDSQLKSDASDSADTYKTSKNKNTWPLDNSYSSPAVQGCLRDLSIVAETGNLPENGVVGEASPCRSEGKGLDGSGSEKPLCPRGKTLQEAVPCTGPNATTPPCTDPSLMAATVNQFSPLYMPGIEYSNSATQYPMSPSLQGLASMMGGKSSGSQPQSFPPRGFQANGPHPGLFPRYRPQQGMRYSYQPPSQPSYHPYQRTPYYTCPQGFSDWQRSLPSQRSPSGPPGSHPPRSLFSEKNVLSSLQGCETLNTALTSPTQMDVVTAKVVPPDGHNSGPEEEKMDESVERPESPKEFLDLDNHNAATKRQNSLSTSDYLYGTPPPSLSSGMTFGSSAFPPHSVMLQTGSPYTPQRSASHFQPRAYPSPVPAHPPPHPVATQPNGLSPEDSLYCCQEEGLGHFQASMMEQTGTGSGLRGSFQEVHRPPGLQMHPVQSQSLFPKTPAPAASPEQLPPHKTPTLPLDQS
UniProt O88379: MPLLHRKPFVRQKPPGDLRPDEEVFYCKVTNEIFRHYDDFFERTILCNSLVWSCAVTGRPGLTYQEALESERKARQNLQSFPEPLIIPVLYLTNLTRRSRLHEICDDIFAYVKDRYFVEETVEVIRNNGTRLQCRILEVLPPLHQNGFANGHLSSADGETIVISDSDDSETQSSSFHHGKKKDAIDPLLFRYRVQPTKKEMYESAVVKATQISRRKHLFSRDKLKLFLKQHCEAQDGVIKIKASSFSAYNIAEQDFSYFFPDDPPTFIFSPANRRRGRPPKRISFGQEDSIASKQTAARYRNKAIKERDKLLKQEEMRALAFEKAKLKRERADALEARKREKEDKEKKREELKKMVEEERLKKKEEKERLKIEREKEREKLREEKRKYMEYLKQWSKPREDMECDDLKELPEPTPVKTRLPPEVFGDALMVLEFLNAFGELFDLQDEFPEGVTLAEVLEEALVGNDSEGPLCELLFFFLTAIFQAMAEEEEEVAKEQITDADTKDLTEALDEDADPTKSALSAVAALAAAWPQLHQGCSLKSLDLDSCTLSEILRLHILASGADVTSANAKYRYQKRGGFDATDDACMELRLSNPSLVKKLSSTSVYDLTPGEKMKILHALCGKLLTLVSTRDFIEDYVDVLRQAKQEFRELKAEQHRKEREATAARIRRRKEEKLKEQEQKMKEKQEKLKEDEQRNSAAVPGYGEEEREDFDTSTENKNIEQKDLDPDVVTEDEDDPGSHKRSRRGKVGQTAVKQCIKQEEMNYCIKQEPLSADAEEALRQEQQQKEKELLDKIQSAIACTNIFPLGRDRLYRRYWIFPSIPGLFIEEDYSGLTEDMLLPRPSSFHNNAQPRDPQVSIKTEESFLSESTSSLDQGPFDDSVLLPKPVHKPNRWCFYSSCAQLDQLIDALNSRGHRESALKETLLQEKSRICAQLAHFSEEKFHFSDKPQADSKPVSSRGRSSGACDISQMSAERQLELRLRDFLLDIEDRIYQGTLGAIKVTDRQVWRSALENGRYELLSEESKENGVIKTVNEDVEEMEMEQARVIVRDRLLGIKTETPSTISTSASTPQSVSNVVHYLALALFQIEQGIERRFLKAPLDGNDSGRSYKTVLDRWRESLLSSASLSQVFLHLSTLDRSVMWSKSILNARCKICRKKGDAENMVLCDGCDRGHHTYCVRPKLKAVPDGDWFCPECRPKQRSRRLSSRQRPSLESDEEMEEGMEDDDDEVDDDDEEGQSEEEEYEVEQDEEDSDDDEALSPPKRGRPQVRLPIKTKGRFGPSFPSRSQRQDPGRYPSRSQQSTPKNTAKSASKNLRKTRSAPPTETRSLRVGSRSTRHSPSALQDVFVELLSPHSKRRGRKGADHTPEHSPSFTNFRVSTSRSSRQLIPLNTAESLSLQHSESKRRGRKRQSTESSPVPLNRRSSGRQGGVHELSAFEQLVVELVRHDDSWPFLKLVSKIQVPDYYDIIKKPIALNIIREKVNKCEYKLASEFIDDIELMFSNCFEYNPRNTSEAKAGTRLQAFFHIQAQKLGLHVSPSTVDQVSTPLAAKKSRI
UniProt Q91YE5: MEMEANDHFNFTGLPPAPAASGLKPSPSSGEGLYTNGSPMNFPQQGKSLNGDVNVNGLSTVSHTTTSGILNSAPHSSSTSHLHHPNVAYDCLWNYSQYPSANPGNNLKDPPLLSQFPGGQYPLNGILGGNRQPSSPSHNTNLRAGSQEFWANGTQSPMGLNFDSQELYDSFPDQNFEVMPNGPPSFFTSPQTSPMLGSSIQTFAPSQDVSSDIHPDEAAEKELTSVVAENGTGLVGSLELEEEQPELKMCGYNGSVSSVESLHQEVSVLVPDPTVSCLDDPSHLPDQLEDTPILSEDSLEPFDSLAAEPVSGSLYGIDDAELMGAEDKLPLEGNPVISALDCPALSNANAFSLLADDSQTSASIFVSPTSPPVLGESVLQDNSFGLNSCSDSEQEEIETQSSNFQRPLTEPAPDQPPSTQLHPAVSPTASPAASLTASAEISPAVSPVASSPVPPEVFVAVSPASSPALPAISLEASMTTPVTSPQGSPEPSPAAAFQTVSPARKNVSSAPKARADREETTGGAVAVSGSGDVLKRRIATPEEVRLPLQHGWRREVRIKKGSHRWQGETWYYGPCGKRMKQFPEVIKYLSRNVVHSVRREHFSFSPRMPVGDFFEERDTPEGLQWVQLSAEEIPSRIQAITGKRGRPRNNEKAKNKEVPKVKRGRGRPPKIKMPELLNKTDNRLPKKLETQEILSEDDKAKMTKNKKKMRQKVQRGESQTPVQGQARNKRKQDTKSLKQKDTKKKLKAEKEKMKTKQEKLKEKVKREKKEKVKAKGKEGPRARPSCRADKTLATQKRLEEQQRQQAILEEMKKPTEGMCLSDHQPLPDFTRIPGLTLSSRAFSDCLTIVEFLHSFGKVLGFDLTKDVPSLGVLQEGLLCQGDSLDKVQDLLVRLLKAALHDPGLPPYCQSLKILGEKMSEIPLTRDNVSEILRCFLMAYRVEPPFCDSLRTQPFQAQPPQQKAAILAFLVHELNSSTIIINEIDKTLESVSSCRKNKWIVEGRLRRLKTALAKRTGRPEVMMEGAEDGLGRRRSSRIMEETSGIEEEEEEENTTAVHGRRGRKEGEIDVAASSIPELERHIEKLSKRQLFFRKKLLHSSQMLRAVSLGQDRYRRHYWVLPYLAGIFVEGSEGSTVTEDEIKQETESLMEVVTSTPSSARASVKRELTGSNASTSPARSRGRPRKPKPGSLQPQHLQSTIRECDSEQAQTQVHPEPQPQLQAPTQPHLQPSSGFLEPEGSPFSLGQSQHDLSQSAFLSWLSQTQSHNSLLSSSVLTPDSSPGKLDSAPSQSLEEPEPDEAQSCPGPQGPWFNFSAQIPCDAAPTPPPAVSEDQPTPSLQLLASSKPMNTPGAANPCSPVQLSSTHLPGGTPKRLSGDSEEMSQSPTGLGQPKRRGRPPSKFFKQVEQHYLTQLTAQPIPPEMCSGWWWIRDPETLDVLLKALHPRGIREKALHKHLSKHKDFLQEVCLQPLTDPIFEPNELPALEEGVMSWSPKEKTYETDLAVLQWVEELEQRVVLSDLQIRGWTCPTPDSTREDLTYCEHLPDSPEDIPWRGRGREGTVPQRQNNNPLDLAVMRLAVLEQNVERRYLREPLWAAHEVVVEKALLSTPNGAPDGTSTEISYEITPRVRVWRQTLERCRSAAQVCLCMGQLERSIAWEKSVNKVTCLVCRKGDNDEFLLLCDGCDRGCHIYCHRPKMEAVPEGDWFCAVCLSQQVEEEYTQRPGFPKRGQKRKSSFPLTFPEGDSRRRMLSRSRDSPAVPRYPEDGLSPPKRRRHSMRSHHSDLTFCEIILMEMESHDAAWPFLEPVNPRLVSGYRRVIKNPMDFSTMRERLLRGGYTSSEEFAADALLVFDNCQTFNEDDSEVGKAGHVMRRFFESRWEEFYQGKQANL

B1: RSF1 (protein, UniProt E9PWW9 1-1441)
chain: MAAAAAAAAAAAAAAMAPPGCPGSCPNFAVVCSFLERYGPLLDLPELPFPELERVLQAPPPDIGNGEVPKELVELHLKLMRKIGKSVTADRWEKYLIKICQEFNSTWAWEMEKKGYLEMSVECKLALLKYLCECQFDDNLKFKNIINEEDADTMRLQPIGRDKDGLMYWYQLDQDHNVRMYIEEQDDQDGSSWKCIVRNRNELAETLALLKAQIDPVLLKNSSQQEDSSRESPTLEDEETKKDEETPKQEASKENEKTGADERSVDSGKCSAASALEEPAVKTEKADEKELAKLPVIVKLEKPLPETEEKKIIREESDSFKENVKPIKVEAKECRADPKDLKGSLERLGSQEPERADFGSNIKSQDIIEKSTEETEKLKNDQQAKIPLKKREIKLSDDFDSPVKGPLCKSATPTKEVLKDDIKQEEETCKRVSTISALSHEGKQLVNGEINDDKVIPNFKTEQMEIQLCDTKEDSASIPAKDGNACMEGNGTECLNSVITSTKTSELEKEAPLGKGIDSSVPDIESLSQKARLEEPGLLNMDMPLEPSEKATDLSLKPTLSATEPCSTKVEEKAPRSKSENHTPGIECLERVEKAKKTSIDKDIQKLSPIPEEVVRGALESEKSGPCEVAETPLPLSMAGAKEKQTSEKKDVDCSRGSSESQSLENASPEILKEDSESSREEVAKLDNAQTSGMEDTSETKGSVQKNKFKYKLVSERNSTASENTEITSERKKEGIKLTIRISSRKKKPDCPPQTVDSESKEEKAGKEEEKASVGRTLRRSPRISRPTAKVAEIRVQKADKRRADGEDGVEGEPASLQTADKKDHLKKAEKDTNSKASKVKPKGKVRWTGSRTRGRWKYSSNDESEGSESDKSSAALEEEEGKEGEEAVLPDDDEPCKKCGLPNHPELILLCDSCDSGYHTACLRPPLMIIPDGEWFCPPCQHKLLCEKLEEQLQDLDVALKKKERAERRKERLVYVGISIENIIPPQEPEFSEEQEEKKKDAKKSKANALERRSTRTRKCISYRFDEFDEAIDEAIEDDIKEADGGGVGRGKDISTITGHRGKDISTILDEERKENKRPQRAAAARRKKRRRLNDLDSDSNLDEEESEDEFKISDGSQDEFVVSDENPDESEEEPPSNEDSDTDFCSRRLRRHPSRPMRQSRRLRRKTPKKKYSDDDEEEEESEENSRDSESDFSDDFSDDFVETRRRRSRRNQKRQINYKEDSESDGSQKSLRRGKEIRRVHKRRLSSSESEESFMSKNSEDDELTKESKRSVRKRGRSTDDYSEADEDDEEEGKPSRKRLHRIETDEESCDNAHGDADQPARDSQPSALPSEQESSKKPYRIESDEEEDFENKVGSPLDYSLVDLPSTNGQSPGKAIENLMGKATEKSQTPKDNGTASASLAPNGTSGGQEVGAPEEDEDELLRVTDLVDYVCNSEQL
B2: WSTF (BAZ1B) (protein, UniProt Q9Z277 1-1479)
chain: MAPLLGRKPFPLVKPLPGEEPLFTIPHTQEAFRTREEYEARLERYSERIWTCKSTGSSQLTHKEAWEEEQEVAELLKEEFPNWYEKLVLEMVHHNTASLEKLVDSAWLEIMTKYAVGEECDFEVGKEKMLKVKIVKIHPLEKVDEEAVEKKSDGACDSPSSDKENSSQMAQDLQKKETVVKEDEGRRESINDRARRSPRKLPTSLKKGERKWAPPKFLPHKYDVKLQNEDKIISNVPADSLIRTERPPNKEILRYFIRHNALRAGTGENAPWVVEDELVKKYSLPSKFSDFLLDPYKYMTLNPSTKRRNTGSPDRKPSKKPKRDSSSLSSPLNPKLWCHVHLEKSLNGPPLKVKNSKNSKSPEEHLEGVMKIMSPNNNKLHSFHIPKKGPAAKKPGKHSDKPLKAKGRGKGILNGQKSTGNSKSPSKCVKTPKTKMKQMTLLDMAKGTQKMTRTPRSSGGVPRSSGKPHKHLPPAALHLIAYYKENKDKEDKKSALSCVISKTARLLSNEDRARLPEELRALVQKRYELLEHKKRWASMSEEQRKEYLKKKRQELKERLREKAKERREREMLERLEKQKRFEDQELGGRNLPAFRLVDTPEGLPNTLFGDVALVVEFLSCYSGLLLPDAQYPITAVSLMEALSADKGGFLYLNRVLVILLQTLLQDEIAEDYGELGMKLSEIPLTLHSVSELVRLCLRRCDVQEDSEGSETDDNKDSTPFEDNEVQDEFLEKLETSEFFELTSEEKLRILTALCHRILMTYSVQDHMETRQQVSAELWKERLAVLKEENDKKRAEKQKRKEMEARNKENGKEENVLGKVDRKKEIVKIEQQVEVEADDMISAVKSRRLLSMQAKRKREIQERETKVRLEREAEEERMRKHKAAAEKAFQEGIAKAKLVLRRTPIGTDRNHNRYWLFSNEVPGLFIEKGWVHNSIDYRFKHHRKDHSNLPDDDYCPRSKKANLGKNASVNAHHGPALEAVETTVPKQGQNLWFLCDSQKELDELLSCLHPQGIRESQLKERLEKRYQEITHSIYLARKPNLGLKSCDGNQELLNFLRSDLIEVATRLQKGGLGYMEGTSEFEARVISLEKLKDFGECVIALQASVIKKFLQGFMAPKQKKRKLQSEDSTKSEEVDEEKKMVEEAKVASALEKWKTAIREAQTFSRMHVLLGMLDACIKWDMSAENARCKVCRKKGEDDKLILCDECNKAFHLFCLRPALYEVPDGEWQCPACQPPTARRNSRGRNYTEESTSEGSEGDESGEEEEEEEEEEEEEEDYEVAGLRLRPRKTIRGKQSVIPAARPGRPPGKKSHPARRSRPKDDPEVDDLVLQTKRISRRQSLELQKCEDILHKLVKYRFSWPFREPVTRDEAEDYYDVIEHPMDFQTIQNKCSCGNYRSVQEFLTDMKQVFANAELYNCRGSHVLSCMEKTEQCLLALLQKHLPGHPYVRRKRRKFPDRLADDEGDSDSESVGQSRGRRQKK

The molecules below were run against SNF2H (SMARCA5) (mouse (endogenous in mESCs)) (UniProt Q91ZW3) (assay: affinity purification with mass spectrometry; co-IP under native conditions with anti-SNF2H antibody on protein G Dynabeads from WT mESC lysate (B150AG buffer: 10 mM Tris-HCl pH 7.5, 2 mM MgCl2, 150 mM NaCl, 0.5% Triton X-100, 50 mM L-arginine, 50 mM L-glutamine), 4 °C overnight; Snf2hΔ cells as mock IP; label-free quantification, three replicates).
CECR2 (from UniProt E9Q2Z1 1-1453) was tested, and the binding was “binds”. In the case of “ACF1 (BAZ1A) (from UniProt O88379 1-1555)”, the binding is reported as “binds”. For “TIP5 (BAZ2A) (from UniProt Q91YE5 1-1889)”, the binding was “binds”. In the case of B1, the binding is reported as “binds”. In the case of B2, the binding is reported as “binds”.
